# Source: patent US20260174680A1, “MAMMARY GLAND TISSUE HEALTH MAINTENANCE AGENT HAVING GABA AS ACTIVE INGREDIENT” (SANWA SHURUI CO., LTD., priority 2022, published 2026)
# At least one compound was matched to its structure with a doubt left.
# Tested on: MCF7 (ATCC HTB-22) cells
# Assay: Cell test: E2-induced DNA double-strand break signals in MCF7 cells (P-Histone H2AX immunostaining)
# Assay type: cell-based
# Conditions: 10 nM E2, 4 hours, versus E2-free
smiles,measurement,value
"C[C@]12CC[C@@H]3c4ccc(O)cc4CC[C@H]3[C@@H]1CC[C@@H]2O [E2, estradiol]",number of DNA damages (DNA double-strand break signals per cell),increased the number of DNA damages
